Laboratory results: patent CN116199778A
Results are given in words; binding and its absence hold for the method and conditions named. Some binding calls cover weakened binding; strength is not graded here.

By UniProt entry, the sequences of proteins in these tests, tags left out. Where a name states a change or a piece, a line headed by the entry shows the natural chain unless it says otherwise. Chains listed by the source or under a name are the forms on record and can include a tag or linker. Residues count along the entry.
UniProt Q07011: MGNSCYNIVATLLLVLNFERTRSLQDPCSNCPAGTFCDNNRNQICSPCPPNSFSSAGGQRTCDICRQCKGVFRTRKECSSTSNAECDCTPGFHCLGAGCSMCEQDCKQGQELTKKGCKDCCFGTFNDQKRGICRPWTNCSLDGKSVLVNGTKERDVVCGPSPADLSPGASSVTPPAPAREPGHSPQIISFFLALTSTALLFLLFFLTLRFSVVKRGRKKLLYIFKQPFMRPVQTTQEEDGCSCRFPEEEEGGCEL
4-1BB on the surface of Jurkat NFKB 4-1BB cells: residues 24-255 of Q07011
含有His标签的人4-1BB (human 4-1BB extracellular region with His tag): residues 24-186 of Q07011

Key:
[1] = molecular target: 含有His标签的人4-1BB (human 4-1BB extracellular region with His tag) (human) (UniProt Q07011); assay: ELISA, His-tagged human 4-1BB coated
[2] = molecular target: 4-1BB on the surface of Jurkat NFKB 4-1BB cells (UniProt Q07011); assay: flow cytometry on Jurkat NFKB 4-1BB cells

B1: JS011-phage6 (antibody, V domains shown)
VH: QVQLVQSGAEVKKPGASVKVSCKASGYTFTGQYIHWARQAPGQGLEWMGWINPNSGGTNYAQKFQGRVTMTRDTSISTAYMELSRLRSDDTAVYYCARDKAGADYWGQGTLVTVSS
VL: ELALTQPPSVSGSPGQSITISCTGTSSDIGGYDYVSWYQQYPGKAPKLMISGVSNRPSGVSNRFSGSKSGNTASLIISGLQAEDEGDYYCSSYTSRSTRWVFGGGTKLTVL
- binding [1]: binds
- binding [2]: binds
